This test addresses T1, Ref2, TAPS-tagged (native CPF/APT subunit) (yeast) (UniProt P42073).
T1 sequence: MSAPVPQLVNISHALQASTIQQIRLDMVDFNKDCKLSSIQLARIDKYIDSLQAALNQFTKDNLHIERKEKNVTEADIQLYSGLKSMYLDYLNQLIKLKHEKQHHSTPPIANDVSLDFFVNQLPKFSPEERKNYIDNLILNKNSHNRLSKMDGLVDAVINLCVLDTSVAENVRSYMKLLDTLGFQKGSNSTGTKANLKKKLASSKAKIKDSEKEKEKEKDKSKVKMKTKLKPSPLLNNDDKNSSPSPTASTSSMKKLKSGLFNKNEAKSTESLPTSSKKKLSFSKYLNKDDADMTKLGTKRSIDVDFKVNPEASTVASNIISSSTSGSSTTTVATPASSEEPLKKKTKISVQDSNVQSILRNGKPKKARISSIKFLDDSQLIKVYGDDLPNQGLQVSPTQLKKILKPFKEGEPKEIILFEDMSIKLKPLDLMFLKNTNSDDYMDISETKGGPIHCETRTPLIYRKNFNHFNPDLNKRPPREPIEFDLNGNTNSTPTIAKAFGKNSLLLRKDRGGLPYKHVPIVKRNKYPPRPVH
Briefly: affinity purification with mass spectrometry; native CPF/APT purified by a tandem affinity purification tag from a yeast strain containing TAPS-tagged Ref2; Coomassie SDS-PAGE; composition analysed by noncovalent nanoESI-MS.

By UniProt entry, the sequences of proteins in these tests, tags left out.
UniProt P53538: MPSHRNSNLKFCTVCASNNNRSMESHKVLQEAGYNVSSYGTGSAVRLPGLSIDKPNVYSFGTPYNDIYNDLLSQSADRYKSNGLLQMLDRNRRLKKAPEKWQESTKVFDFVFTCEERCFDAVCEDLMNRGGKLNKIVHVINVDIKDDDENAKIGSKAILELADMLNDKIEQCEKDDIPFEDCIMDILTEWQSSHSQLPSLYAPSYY
UniProt P32598: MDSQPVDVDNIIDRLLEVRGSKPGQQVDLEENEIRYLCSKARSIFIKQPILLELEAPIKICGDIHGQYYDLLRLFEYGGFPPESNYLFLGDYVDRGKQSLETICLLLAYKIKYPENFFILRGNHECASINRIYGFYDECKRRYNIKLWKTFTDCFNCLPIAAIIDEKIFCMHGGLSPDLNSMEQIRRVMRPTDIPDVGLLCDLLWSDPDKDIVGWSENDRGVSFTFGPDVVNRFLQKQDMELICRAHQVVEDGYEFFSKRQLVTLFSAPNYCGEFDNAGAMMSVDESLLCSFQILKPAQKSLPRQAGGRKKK
UniProt P29468: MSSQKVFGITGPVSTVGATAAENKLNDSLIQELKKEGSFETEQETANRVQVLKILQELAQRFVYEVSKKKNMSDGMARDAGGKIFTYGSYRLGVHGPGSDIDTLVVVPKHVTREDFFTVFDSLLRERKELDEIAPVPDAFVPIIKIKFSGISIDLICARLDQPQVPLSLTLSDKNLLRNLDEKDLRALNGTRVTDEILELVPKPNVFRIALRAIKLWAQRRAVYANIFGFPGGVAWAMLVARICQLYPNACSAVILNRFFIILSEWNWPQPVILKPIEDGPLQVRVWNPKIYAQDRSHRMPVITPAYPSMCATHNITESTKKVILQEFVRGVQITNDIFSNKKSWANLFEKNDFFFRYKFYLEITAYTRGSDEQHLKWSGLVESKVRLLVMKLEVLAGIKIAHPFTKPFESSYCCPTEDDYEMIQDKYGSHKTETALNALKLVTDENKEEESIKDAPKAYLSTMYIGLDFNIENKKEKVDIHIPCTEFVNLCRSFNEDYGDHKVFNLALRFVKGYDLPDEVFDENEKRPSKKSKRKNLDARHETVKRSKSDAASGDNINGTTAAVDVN

No constants are given. Whether binding was seen depends on the method and setting. Binding seen in cells or lysates may run through a third protein. A yes stands for co-enrichment or nearness to the bait. Other partners may have been found. Tags and fused reporters may be left off the sequences shown.

On to “Ssu72 (native CPF/APT subunit) (from UniProt P53538 1-206) (enzyme)”, for which the binding entry is reported as “binds”.
Regarding “Glc7 (native CPF/APT subunit) (from UniProt P32598 1-312) (enzyme)”, the binding result is listed as “binds”.
“Pap1 (native CPF subunit) (from UniProt P29468 1-568) (enzyme)”: the binding entry is “binds”.

The record behind these values is paper PMC5788269.
